# In patent US20230287046A1, “MOLECULES TARGETING PROTEINS” (AELIN THERAPEUTICS, priority 2020, published 2023):
# Positions count from the first letter of the chain named. Names and notes keep the numbering of the source. These are yes or no findings as the source states them, for the method shown. Some results given as binding are weak or reduced against the parent protein; the word gives no strength. For part of these data: Tags and fused reporters may be left off the sequences shown.
# T1: ITK R29C, DYKDDDDK-tagged (produced by in vitro translation) (human) (UniProt Q08881)
# T1 sequence: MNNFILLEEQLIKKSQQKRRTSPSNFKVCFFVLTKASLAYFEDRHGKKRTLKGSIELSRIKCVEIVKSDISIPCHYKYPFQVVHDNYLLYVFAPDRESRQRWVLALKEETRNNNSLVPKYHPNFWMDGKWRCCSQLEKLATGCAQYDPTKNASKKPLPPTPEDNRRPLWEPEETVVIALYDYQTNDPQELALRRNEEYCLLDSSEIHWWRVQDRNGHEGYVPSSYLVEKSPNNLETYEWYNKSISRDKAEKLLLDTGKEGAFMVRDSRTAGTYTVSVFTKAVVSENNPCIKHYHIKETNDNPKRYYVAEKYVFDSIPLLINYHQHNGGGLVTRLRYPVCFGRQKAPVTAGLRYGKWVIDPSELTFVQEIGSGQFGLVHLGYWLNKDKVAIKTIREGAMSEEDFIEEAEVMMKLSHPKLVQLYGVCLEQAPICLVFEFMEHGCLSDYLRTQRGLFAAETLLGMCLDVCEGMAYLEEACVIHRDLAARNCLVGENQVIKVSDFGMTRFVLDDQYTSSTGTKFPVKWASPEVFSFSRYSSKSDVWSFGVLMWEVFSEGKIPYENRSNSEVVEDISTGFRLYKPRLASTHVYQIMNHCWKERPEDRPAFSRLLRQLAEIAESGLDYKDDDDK
# T2: ITK R29L, DYKDDDDK-tagged (produced by in vitro translation) (human) (UniProt Q08881)
# T2 sequence: T1 sequence with C29L
# Assays:
# [1] = target: mCherry-tagged KRAS G12V (overexpressed in HeLa cells) (human) (UniProt P01116); experiment: confocal co-localization in HeLa cells overexpressing mCherry-KRAS G12V
# [2] = target: mCherry-tagged KRAS G12V (overexpressed in HeLa cells) (human) (UniProt P01116); experiment: confocal co-localization in HeLa cells overexpressing mCherry-KRAS G12V (FIG. 8)
# [3] = target: T1, ITK R29C, DYKDDDDK-tagged (produced by in vitro translation) (human); experiment: in vitro translation with 10 µM biotinylated pept-in, streptavidin pull-down, anti-DYKDDDDK Western blot
# [4] = target: T1, ITK R29C, DYKDDDDK-tagged (produced by in vitro translation) (human); experiment: in vitro translation assay (FIG. 14)
# [5] = target: T2, ITK R29L, DYKDDDDK-tagged (produced by in vitro translation) (human); experiment: in vitro translation with 10 µM biotinylated pept-in, streptavidin pull-down, anti-DYKDDDDK Western blot
# [6] = target: T2, ITK R29L, DYKDDDDK-tagged (produced by in vitro translation) (human); experiment: in vitro translation assay (FIG. 14)
binder,measurement,setting,value
KVVVGAVGKGSKVVVGAVGK (FITC label (position not given)) [04-015-N032],binding,[1],binds
same,binding,[2],binds
AKVCFFVKGSKVCFFVK (N-terminally biotinylated; C-terminally amidated) [22-006-N001],binding,[3],binds
same,binding,[4],binds
AKVLFFVKGSKVLFFVK (N-terminally biotinylated; C-terminally amidated) [22-018-N001],binding,[5],binds
same,binding,[6],binds
